{"source": "PubChem BioAssay AID686943 (Drosophila RNAi Screening Center, 2013)", "test": "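Knockdowns that increase or decrease active ERK after insulin receptor stimulation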 (primary screen)", "cells": "Drosophila S2R+ haemocyte-like cells expressing YFP-tagged ERK (Rolled)", "reagent": "long dsRNA against Drosophila genes", "conditions": "insulin stimulation versus unstimulated cells; dose and duration not given", "measurement": "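Per-plate z-scores of phospho-ERK immunostaining normalised to YFP-tagged ERK, measured with and without insulin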", "reading the numbers": "replicate 1, z-score of dpERK with insulin and replicate 2, z-score of dpERK with insulin: higher = more active ERK per ERK-YFP after insulin", "note": "The screen tested about 23,000 reagents; this is a random part of those with a known target gene and a result. 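Extra replicates exist only for a retested subset of genes; insulin dose and duration not given; both raised and lowered dpERK matter.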 The numbers tell different reagents against one gene apart. Not all columns of the deposit are shown. Not stated in the record: the amount of reagent, the time to read-out."}
{"target gene": "CG44325", "reagent no.": 1, "replicate 1, z-score of dpERK with insulin": 0.52, "replicate 2, z-score of dpERK with insulin": 0.04}
{"target gene": "CG44325", "reagent no.": 2, "replicate 1, z-score of dpERK with insulin": -0.25, "replicate 2, z-score of dpERK with insulin": 0.02}
{"target gene": "mu2 (mutator 2)", "reagent no.": 1, "replicate 1, z-score of dpERK with insulin": 0.77, "replicate 2, z-score of dpERK with insulin": 0.6}
{"target gene": "mu2 (mutator 2)", "reagent no.": 2, "replicate 1, z-score of dpERK with insulin": 0.52, "replicate 2, z-score of dpERK with insulin": 0.28}
{"target gene": "CG4325", "reagent no.": 1, "replicate 1, z-score of dpERK with insulin": 0, "replicate 2, z-score of dpERK with insulin": -3.37}
{"target gene": "CG15330", "reagent no.": 1, "replicate 1, z-score of dpERK with insulin": -0.53, "replicate 2, z-score of dpERK with insulin": -0.09}
{"target gene": "CG32191", "reagent no.": 1, "replicate 1, z-score of dpERK with insulin": -1.39, "replicate 2, z-score of dpERK with insulin": -0.3}
{"target gene": "ppk30 (pickpocket 30)", "reagent no.": 1, "replicate 1, z-score of dpERK with insulin": -0.01, "replicate 2, z-score of dpERK with insulin": 0.07}
{"target gene": "Grl43a (Gustatory receptor-like 43a)", "reagent no.": 1, "replicate 1, z-score of dpERK with insulin": -0.79, "replicate 2, z-score of dpERK with insulin": -1.18}
{"target gene": "CG12301", "reagent no.": 1, "replicate 1, z-score of dpERK with insulin": 0.15, "replicate 2, z-score of dpERK with insulin": -0.17}

Laid out differently: 2 of the entries above.
{"target gene":"CG32191","reagent no.":1,"replicate 1, z-score of dpERK with insulin":-1.39,"replicate 2, z-score of dpERK with insulin":-0.3}
{"target gene":"ppk30 (pickpocket 30)","reagent no.":1,"replicate 1, z-score of dpERK with insulin":-0.01,"replicate 2, z-score of dpERK with insulin":0.07}

Additional entries follow:
{"target gene": "CG30015", "reagent no.": 1, "replicate 1, z-score of dpERK with insulin": 0.12, "replicate 2, z-score of dpERK with insulin": 0.98}
{"target gene": "CG30015", "reagent no.": 2, "replicate 1, z-score of dpERK with insulin": 0.4, "replicate 2, z-score of dpERK with insulin": 0.34}
{"target gene": "CG30015", "reagent no.": 3, "replicate 1, z-score of dpERK with insulin": 0.24, "replicate 2, z-score of dpERK with insulin": -0.44}
{"target gene": "Tsp42Ef (Tetraspanin 42Ef)", "reagent no.": 1, "replicate 1, z-score of dpERK with insulin": 0.45, "replicate 2, z-score of dpERK with insulin": -0.59}
{"target gene": "Klp98A (Kinesin-like protein at 98A)", "reagent no.": 1, "replicate 1, z-score of dpERK with insulin": 0.43, "replicate 2, z-score of dpERK with insulin": 0.62}
{"target gene": "Klp98A (Kinesin-like protein at 98A)", "reagent no.": 2, "replicate 1, z-score of dpERK with insulin": 1, "replicate 2, z-score of dpERK with insulin": 0.37}
{"target gene": "Rbp6 (RNA-binding protein 6)", "reagent no.": 1, "replicate 1, z-score of dpERK with insulin": 0.65, "replicate 2, z-score of dpERK with insulin": 0.04}
{"target gene": "Rbp6 (RNA-binding protein 6)", "reagent no.": 2, "replicate 1, z-score of dpERK with insulin": -0.25, "replicate 2, z-score of dpERK with insulin": -0.6}
{"target gene": "Rbp6 (RNA-binding protein 6)", "reagent no.": 3, "replicate 1, z-score of dpERK with insulin": -0.05, "replicate 2, z-score of dpERK with insulin": -0.01}
{"target gene": "Rbp6 (RNA-binding protein 6)", "reagent no.": 4, "replicate 1, z-score of dpERK with insulin": 0.45, "replicate 2, z-score of dpERK with insulin": -0.23}
{"target gene": "Rbp6 (RNA-binding protein 6)", "reagent no.": 5, "replicate 1, z-score of dpERK with insulin": 0.26, "replicate 2, z-score of dpERK with insulin": 0.18}
{"target gene": "Dysb (Dysbindin)", "reagent no.": 1, "replicate 1, z-score of dpERK with insulin": 1.39, "replicate 2, z-score of dpERK with insulin": 0.97}
{"target gene": "ND-20 (NADH dehydrogenase (ubiquinone) 20 kDa subunit)", "reagent no.": 1, "replicate 1, z-score of dpERK with insulin": -0.01, "replicate 2, z-score of dpERK with insulin": 0.92}
{"target gene": "CG13775", "reagent no.": 1, "replicate 1, z-score of dpERK with insulin": 0.71, "replicate 2, z-score of dpERK with insulin": 0.07}
{"target gene": "Ubc2 (Ubiquitin conjugating enzyme 2)", "reagent no.": 1, "replicate 1, z-score of dpERK with insulin": -0.46, "replicate 2, z-score of dpERK with insulin": 0.2}
{"target gene": "Ubc2 (Ubiquitin conjugating enzyme 2)", "reagent no.": 2, "replicate 1, z-score of dpERK with insulin": -1.89, "replicate 2, z-score of dpERK with insulin": -0.8}
{"target gene": "Vha100-5 (Vacuolar H[+] ATPase 100kD subunit 5)", "reagent no.": 1, "replicate 1, z-score of dpERK with insulin": -1.32, "replicate 2, z-score of dpERK with insulin": -0.92}
{"target gene": "Cpr65Ay (Cuticular protein 65Ay)", "reagent no.": 1, "replicate 1, z-score of dpERK with insulin": 1.08, "replicate 2, z-score of dpERK with insulin": 0.52}
{"target gene": "CG31819", "reagent no.": 1, "replicate 1, z-score of dpERK with insulin": 0.39, "replicate 2, z-score of dpERK with insulin": 0.17}
{"target gene": "Ero1L (Endoplasmic reticulum oxidoreductin-1-like)", "reagent no.": 1, "replicate 1, z-score of dpERK with insulin": 0.75, "replicate 2, z-score of dpERK with insulin": 0.14}
{"target gene": "Pkn (Protein kinase N)", "reagent no.": 1, "replicate 1, z-score of dpERK with insulin": -2.06, "replicate 2, z-score of dpERK with insulin": -1.43}
{"target gene": "Pkn (Protein kinase N)", "reagent no.": 2, "replicate 1, z-score of dpERK with insulin": 0.22, "replicate 2, z-score of dpERK with insulin": 0.24}
